HELM strings list residues between dots; [ac] is acetyl, [am] amide, other brackets name non-standard units.
How the values were obtained:
[1] = Fmoc solid-phase peptide synthesis; Fmoc-L-Ser(t-Bu) TentaGel R resin; details: whole synthesis, A215
peptide synthesis = details: whole synthesis, A215

Row | Substance | final HPLC purity [1] [%] | final HPLC purity (peptide synthesis) [%]
1 | PEPTIDE1{Y.G.G.F.M.R.R.V.G.R.P.E.W.L.V.D.S}$$$$V2.0 | 97 | –
2 | PEPTIDE1{Y.G.G.F.M.R.R.V.G.R.P.E.W}$$$$V2.0 | – | 98
3 | PEPTIDE1{Y.G.G.F.M.R.R.V}$$$$V2.0 | – | 96

Source: PMC8569185 (Frontiers in Pharmacology, 2021)
